In patent US8278296B2, “Manipulation of brain CDP-diacylglycerol and uses thereof” (priority 2006, dated 2012):
At least one compound was matched to its structure with a doubt left.

System: CDP-diacylglycerol
Test: [3H]CDP-diacylglycerol accumulation in rat brain slices
Format: cell-based
Conditions: rat cerebrocortical slices; 0.1-300 μM; other psychotropic compounds

CNC1=Nc2ccc(Cl)cc2C(c2ccccc2)=[N+]([O-])C1 [chlordiazepoxide]
effect on CDP-diacylglycerol accumulation: No significant effects or concentration-related effects
